No constants are given. Whether binding was seen depends on the method and setting. In cells and extracts the contact can be indirect. These calls come from enrichment with a bait or labelling near it, and not all partners need be listed.
B1: jouberin (protein, UniProt Q8K3E5 1-1047)
chain: MEPETPEKVDSAQEKVRGKTPTADDSDDSREKTGIEEKGELTDAYQLQVAEEMAKEIKKKIRKKLKEQLTYFPPDTLLHDDKLASEKRKKKKKKVPVPTKPESSPSDVCDSAVEGEQKKEGTPEDSQHMEGICSREQDVDATVPENAKPKPKKTKKKTKAVSNDNEDTNGDGVHEITSRDSPVHPKCLLDDDLVMGVYIHRTDRLKSDFMISHPMVKIHVVDEHTGQYVKKDDSERPVSSYYEKDNVDYILPIMTQPYDFKKLKSRLPEWEEQVIFNENFPYLLREFEECPKVILFFEILDFLSMDEIKNNSEVQNQECGFRKIAWAFLKLLGANGNANINSKLRLQLYYPPTKPRSQLNVVEVFEWWSKCPRNRYPSTLYVTVRGLKVPDCIKPSYRSMMALQEERGTPVYCERHRETSSVDTEPGLEDSKEEVKWKRLPGQACRIPNKHLFSLNAGERGCFCLDFSHNGRILAAACASRDGYPIILYEIPSGRFMRELCGHLNIIYDLDWSKDDRYLVTSSSDGTARVWKNEINSTSTFRVLPHPSFVYTAKFHPATRELVVTGCYDSMIRIWKIDAREDAAILVRQLDVHKSFVNSICFDDEGHHMYSGDCIGVIVVWDTYVKVNDVQTSVRHWTINKEIKETEFRGVPISYLEVHPNGKRLLIHTKDSTLRIMDLRILAARKFVGAANYREKIHSTLTPCGTLLFSGSEDGIVYVWNPETGEQVAMYSDLPFKSTIRDISYHPLENMVAFCAFGQSEPILLYIYDFQVAQQEAEMLKRYSGTLPLPGIHQSEDALCTCPKLPQQGSFQIDEFVNTENSSSRKIQLVKQRLETVTEVIRSCAAKVNKNLSMTSPPPGPAKKPRVKQSFVLTTDEIIHQFGLPQTAFISIERGPFVRHVDPPPMVVALYDYTASRSDELTIHRGDIIRVYFKDNEDWWYGSVRKGQEGFFPANHVASETLYRDSPPKVKERSPPLTPKEKTKPEKPLASQKQSLSKGRPLDPRLGPQPVGHSEKGKDQNVEDRGHKVDMETKKSEPVVRKVTLIE

The chains behind the UniProt entries cited, without tags or fusion partners.
UniProt Q80TJ1: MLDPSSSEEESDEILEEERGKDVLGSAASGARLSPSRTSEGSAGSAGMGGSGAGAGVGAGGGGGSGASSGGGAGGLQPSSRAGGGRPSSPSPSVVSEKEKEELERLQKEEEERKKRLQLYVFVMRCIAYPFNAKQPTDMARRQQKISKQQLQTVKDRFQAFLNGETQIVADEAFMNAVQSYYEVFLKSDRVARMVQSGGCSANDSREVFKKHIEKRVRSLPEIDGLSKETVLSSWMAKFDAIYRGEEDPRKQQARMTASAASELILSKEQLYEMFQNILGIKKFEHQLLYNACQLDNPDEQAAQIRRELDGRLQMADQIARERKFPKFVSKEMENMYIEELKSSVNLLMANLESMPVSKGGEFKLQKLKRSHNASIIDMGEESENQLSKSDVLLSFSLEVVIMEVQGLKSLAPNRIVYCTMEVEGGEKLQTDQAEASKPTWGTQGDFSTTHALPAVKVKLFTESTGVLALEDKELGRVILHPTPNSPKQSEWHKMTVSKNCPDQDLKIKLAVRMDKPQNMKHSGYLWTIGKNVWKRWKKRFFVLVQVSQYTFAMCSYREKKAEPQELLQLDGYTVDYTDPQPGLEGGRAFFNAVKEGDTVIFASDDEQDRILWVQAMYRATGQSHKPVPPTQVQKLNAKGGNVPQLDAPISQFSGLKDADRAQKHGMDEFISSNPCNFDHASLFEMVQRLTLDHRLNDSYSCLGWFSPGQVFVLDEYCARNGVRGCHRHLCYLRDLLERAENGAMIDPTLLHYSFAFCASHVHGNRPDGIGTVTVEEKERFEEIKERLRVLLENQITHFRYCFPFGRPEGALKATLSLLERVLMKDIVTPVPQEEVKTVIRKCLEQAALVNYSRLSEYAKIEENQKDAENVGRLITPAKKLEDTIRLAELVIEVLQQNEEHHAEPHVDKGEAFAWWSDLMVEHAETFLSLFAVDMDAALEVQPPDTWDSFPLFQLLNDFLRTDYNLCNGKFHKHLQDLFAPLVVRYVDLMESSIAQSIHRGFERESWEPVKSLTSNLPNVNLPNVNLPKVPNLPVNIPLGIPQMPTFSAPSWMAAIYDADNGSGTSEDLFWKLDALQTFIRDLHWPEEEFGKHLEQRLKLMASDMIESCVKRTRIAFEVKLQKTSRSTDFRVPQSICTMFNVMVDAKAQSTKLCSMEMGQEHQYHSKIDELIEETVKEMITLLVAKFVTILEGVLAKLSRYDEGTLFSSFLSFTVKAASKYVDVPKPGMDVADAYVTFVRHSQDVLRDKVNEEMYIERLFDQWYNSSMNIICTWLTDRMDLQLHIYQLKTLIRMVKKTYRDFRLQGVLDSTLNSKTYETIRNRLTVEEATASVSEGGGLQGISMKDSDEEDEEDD
UniProt Q7TSJ2: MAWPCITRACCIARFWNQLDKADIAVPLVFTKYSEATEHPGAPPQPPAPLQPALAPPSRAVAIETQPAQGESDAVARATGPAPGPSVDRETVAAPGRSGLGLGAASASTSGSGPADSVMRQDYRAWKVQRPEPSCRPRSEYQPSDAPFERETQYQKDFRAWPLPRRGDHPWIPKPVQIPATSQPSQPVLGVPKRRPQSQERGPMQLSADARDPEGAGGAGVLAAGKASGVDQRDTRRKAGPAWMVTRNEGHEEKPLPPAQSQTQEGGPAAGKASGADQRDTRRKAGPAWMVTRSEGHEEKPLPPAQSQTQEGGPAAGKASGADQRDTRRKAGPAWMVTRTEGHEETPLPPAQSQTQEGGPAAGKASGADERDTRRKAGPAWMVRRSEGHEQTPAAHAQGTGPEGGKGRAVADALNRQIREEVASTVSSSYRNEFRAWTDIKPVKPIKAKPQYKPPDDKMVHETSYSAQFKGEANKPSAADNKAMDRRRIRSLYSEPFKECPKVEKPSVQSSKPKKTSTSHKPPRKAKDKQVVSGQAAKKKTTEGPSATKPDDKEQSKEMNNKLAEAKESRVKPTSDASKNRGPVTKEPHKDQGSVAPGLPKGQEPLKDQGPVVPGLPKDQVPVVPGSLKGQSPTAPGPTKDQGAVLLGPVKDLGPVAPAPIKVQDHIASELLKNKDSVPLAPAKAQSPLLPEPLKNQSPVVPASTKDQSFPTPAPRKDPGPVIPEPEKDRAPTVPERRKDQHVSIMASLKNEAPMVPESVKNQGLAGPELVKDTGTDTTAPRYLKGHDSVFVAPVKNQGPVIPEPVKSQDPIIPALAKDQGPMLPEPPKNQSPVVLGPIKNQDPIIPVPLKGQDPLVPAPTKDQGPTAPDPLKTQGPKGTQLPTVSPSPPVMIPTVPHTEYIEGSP
UniProt O08788: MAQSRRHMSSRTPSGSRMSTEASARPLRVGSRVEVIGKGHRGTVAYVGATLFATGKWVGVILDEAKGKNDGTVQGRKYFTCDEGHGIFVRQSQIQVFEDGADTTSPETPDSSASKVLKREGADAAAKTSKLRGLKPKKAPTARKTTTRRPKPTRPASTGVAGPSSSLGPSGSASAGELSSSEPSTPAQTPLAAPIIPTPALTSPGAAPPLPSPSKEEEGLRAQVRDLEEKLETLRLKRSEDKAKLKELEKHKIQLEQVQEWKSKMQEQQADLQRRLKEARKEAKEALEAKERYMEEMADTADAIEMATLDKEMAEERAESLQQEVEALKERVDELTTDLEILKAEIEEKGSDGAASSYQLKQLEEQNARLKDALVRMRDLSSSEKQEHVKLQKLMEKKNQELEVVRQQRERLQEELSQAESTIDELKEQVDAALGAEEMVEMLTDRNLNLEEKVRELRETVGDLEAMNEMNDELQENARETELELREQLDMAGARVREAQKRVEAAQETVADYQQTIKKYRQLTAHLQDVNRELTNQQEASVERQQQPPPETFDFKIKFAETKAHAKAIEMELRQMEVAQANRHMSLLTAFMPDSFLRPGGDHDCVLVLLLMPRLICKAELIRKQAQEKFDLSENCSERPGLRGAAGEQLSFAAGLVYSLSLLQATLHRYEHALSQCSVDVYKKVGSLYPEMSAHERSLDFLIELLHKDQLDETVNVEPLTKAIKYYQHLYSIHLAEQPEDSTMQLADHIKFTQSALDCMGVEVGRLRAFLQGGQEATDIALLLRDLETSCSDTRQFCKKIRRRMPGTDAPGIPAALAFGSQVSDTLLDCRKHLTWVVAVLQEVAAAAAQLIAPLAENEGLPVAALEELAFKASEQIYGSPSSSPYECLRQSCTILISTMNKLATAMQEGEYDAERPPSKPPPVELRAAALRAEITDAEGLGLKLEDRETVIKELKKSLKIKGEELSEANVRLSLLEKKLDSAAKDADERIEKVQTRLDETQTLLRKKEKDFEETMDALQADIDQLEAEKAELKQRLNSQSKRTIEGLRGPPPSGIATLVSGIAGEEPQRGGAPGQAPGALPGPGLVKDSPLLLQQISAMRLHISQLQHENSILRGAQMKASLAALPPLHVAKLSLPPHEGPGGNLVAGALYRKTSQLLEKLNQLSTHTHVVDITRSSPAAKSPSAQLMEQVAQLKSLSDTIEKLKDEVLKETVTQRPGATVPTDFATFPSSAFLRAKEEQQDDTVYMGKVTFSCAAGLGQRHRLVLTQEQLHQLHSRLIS

Target: calcium-dependent activator protein for secretion 1 (CAPS1) (mouse (endogenous in whole mouse brain)) (UniProt Q80TJ1)
Experiment: affinity purification with mass spectrometry; immunoprecipitation of endogenous CAPS1 from precleared whole mouse brain lysate with a rabbit anti-CAPS1 antibody (3 h, room temperature) and Protein G Dynabeads (1 h); lysis buffer 20 mM HEPES, 150 mM KCl, 0.05% Tween-20, 100 nM CaCl2, pH 7.4, 300 mM sucrose; rabbit IgG as negative control; eluates analysed by nano-LC-MS/MS, three independent eluates

Molecule	binding
MAP6 (from UniProt Q7TSJ2 1-906)	binds
dynactin subunit 1 (from UniProt O08788 1-1281)	binds
B1	binds

Source: paper PMC9049930
